Among the data in article PMC7862700 are binding signal values, retold here.

Chains of the proteins cited; added tags and fusions are not shown. Lines headed by an entry give the natural chain unless they say otherwise; changes in a name come on top.
UniProt P32519: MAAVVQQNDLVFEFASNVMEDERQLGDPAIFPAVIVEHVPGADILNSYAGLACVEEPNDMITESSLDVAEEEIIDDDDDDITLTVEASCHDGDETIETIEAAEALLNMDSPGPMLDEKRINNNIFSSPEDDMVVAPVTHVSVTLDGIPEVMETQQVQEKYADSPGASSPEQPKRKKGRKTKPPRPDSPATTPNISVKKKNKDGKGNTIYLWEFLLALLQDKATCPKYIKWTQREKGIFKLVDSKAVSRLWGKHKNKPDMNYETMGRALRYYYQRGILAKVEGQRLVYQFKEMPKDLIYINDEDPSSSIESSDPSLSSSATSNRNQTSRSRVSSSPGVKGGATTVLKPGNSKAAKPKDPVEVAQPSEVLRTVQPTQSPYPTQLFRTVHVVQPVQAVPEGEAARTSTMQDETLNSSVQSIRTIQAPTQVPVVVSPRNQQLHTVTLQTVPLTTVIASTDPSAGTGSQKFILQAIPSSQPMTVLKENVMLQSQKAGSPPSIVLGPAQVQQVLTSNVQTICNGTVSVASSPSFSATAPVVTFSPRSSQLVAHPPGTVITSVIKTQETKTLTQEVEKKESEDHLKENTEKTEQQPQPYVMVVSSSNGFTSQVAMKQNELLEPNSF
UniProt P50549: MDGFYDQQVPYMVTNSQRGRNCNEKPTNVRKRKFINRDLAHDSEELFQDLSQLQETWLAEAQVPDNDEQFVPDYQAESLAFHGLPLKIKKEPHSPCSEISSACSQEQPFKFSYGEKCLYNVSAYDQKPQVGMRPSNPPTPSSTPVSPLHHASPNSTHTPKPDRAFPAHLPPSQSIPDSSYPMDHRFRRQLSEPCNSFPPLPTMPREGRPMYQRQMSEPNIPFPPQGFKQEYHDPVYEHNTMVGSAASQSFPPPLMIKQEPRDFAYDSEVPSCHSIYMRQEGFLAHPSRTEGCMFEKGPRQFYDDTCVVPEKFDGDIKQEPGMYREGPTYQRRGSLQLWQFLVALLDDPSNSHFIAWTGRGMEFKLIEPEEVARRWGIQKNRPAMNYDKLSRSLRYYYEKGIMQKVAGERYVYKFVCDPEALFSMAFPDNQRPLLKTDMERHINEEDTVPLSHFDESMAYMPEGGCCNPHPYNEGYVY

Holding throughout (experiment): DAPPL (digital affinity profiling via proximity ligation, sequencing)
Common to all, as to conditions: 10 mM Tris-HCl pH 7.5, 50 mM NaCl, 1 mM DTT, 4% glycerol, room temperature, 30 min; GST-TFs on glutathione beads, 16-mer random dsDNA library, 0.1% …; high values mean tight binding; double strand, one strand shown; scale: fold enrichment (6-mer frequency, TF over GST control)

Experiment [1] deals with T1, ERG (UniProt P11308).
T1 sequence: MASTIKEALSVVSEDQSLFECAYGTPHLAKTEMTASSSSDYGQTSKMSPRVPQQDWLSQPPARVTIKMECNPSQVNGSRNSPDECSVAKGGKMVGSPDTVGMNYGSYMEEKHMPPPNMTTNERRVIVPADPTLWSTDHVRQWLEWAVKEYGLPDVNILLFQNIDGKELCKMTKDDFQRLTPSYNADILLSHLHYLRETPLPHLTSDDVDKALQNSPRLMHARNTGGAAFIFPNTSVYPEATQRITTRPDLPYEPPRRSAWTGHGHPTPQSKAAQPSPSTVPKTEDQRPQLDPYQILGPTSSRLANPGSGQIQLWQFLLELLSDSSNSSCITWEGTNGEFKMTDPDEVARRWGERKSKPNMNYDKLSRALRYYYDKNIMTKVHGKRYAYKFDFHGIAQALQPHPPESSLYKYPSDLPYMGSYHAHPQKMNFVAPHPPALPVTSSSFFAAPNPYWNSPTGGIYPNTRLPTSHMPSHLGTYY

The target of experiment [2] is ELF1 (UniProt P32519).
The target of experiment [3] is T2, ELK4 (UniProt P28324-2).
T2 sequence: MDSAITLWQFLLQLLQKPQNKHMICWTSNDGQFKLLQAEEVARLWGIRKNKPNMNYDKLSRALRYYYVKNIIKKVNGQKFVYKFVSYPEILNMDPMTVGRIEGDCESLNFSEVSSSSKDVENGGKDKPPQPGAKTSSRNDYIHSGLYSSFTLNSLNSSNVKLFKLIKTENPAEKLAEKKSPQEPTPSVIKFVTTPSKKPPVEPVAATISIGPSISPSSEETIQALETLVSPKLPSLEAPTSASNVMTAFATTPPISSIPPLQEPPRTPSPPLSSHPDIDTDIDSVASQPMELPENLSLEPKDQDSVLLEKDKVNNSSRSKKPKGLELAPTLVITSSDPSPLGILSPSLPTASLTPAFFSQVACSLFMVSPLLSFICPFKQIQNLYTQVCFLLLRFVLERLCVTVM

In experiment [4] the target is T3, ETV4 (UniProt P43268).
T3 sequence: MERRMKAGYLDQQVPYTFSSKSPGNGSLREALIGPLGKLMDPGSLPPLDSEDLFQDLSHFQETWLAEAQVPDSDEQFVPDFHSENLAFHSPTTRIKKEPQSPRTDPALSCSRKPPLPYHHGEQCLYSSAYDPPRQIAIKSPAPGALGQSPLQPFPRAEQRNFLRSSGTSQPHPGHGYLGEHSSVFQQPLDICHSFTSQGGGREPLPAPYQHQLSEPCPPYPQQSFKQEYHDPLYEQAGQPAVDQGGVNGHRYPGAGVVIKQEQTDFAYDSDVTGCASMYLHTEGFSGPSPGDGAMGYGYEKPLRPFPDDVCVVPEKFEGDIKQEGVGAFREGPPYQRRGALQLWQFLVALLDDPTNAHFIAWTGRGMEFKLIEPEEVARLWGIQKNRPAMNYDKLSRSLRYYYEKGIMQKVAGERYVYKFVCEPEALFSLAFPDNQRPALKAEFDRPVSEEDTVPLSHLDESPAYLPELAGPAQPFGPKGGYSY

The target of experiment [5] is ETV1 (UniProt P50549).
Experiment [6] addresses T4, ERF (UniProt P50548).
T4 sequence: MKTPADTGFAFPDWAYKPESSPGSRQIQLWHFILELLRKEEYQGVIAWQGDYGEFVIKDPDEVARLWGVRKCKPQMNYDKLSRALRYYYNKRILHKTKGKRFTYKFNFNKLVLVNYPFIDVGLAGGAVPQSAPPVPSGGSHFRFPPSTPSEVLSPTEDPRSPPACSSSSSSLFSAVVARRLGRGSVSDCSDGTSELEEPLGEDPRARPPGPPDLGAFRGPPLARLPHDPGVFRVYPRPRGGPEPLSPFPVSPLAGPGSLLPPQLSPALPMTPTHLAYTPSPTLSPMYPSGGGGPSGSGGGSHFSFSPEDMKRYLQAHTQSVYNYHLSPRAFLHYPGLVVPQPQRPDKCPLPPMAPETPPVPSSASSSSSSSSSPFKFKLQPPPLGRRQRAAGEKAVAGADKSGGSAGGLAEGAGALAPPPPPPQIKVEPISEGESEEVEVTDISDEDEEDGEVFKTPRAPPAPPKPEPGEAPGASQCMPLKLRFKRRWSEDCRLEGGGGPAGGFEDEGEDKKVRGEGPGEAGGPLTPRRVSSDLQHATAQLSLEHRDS

The entries are a selection whose mix differs from that of the whole data set. For part of these data: At the low end of the ranking the order means little. This is one part of the list. For part of these data: The exact form of the protein is not confirmed.

As for CGAGGT, the binding signal in experiment [1] came to 0.982; in experiment [2] it was 0.944; in experiment [3] it was 1.06; in experiment [4] it was 0.98; in experiment [5], 0.965; in experiment [6], 0.983.

For CAGAAA, the binding signal in experiment [1] came out at 0.898; in experiment [2], 0.942; in experiment [3], 0.885; in experiment [4], 0.901; in experiment [5] it was 0.92; in experiment [6], 0.939.

For the sequence TAAGTC, the binding signal worked out at 0.862 in experiment [1]; 0.897 in experiment [2]; 0.817 in experiment [3]; 0.844 in experiment [4]; 0.897 in experiment [5]; 0.901 in experiment [6].

In the case of TAGAGA, the binding signal in experiment [1] turned out to be 0.788; in experiment [2], 0.847; in experiment [3] it was 0.807; in experiment [4], 0.826; in experiment [5], 0.814; in experiment [6], 0.794.

As for AGGATT, the binding signal came out at 0.87 in experiment [1]; 0.933 in experiment [2]; 0.926 in experiment [3]; 0.92 in experiment [4]; 0.95 in experiment [5]; 0.908 in experiment [6].

Turning to GCAGAT, the binding signal in experiment [1] is 0.931; in experiment [2], 0.941; in experiment [3], 1.04; in experiment [4], 0.963; in experiment [5], 0.914; in experiment [6], 0.909.

Regarding TCCAGA, the binding signal in experiment [1] was 0.888; in experiment [2], 0.869; in experiment [3], 0.9; in experiment [4] it was 0.894; in experiment [5] it was 0.903; in experiment [6], 0.88.

For TGGCGT, the binding signal in experiment [1] was 0.994; in experiment [2] it was 0.931; in experiment [3], 0.912; in experiment [4] it was 0.932; in experiment [5], 0.923; in experiment [6], 0.964.

Turning to GACTTG, the binding signal in experiment [1] is 0.791; in experiment [2] it was 0.917; in experiment [3], 0.987; in experiment [4], 0.906; in experiment [5], 0.889; in experiment [6], 0.766.

For the sequence ACCAAG, the binding signal in experiment [1] worked out at 0.924; in experiment [2], 0.941; in experiment [3] it was 0.965; in experiment [4], 0.881; in experiment [5], 0.899; in experiment [6], 0.986.

On to GCGATC, for which the binding signal in experiment [1] came out at 0.999; in experiment [2] it was 1.06; in experiment [3], 1.13; in experiment [4] it was 1.04; in experiment [5], 1.03; in experiment [6], 0.931.

As for GCCATC, the binding signal in experiment [1] was 0.997; in experiment [2], 0.982; in experiment [3], 0.958; in experiment [4], 0.868; in experiment [5], 0.928; in experiment [6], 0.935.

On to GTAAGC, for which the binding signal in experiment [1] was found to be 0.933; in experiment [2], 0.932; in experiment [3], 0.983; in experiment [4], 0.902; in experiment [5], 0.925; in experiment [6], 0.874.

With AGAAGG, the binding signal amounted to 0.723 in experiment [1]; 0.678 in experiment [2]; 0.713 in experiment [3]; 0.687 in experiment [4]; 0.687 in experiment [5]; 0.722 in experiment [6].

On to CGAGAA, for which the binding signal is 0.856 in experiment [1]; 0.829 in experiment [2]; 0.767 in experiment [3]; 0.927 in experiment [4]; 0.849 in experiment [5]; 0.882 in experiment [6].

As for ACAAGT, the binding signal in experiment [1] was found to be 0.877; in experiment [2], 0.958; in experiment [3] it was 0.892; in experiment [4], 0.869; in experiment [5], 0.905; in experiment [6], 0.938.

On to AGAACT, for which the binding signal came to 0.902 in experiment [1]; 0.963 in experiment [2]; 0.873 in experiment [3]; 0.954 in experiment [4]; 0.929 in experiment [5]; 0.8 in experiment [6].

For TCGCGA, the binding signal was determined as 0.897 in experiment [1]; 0.886 in experiment [2]; 0.915 in experiment [3]; 0.882 in experiment [4]; 0.919 in experiment [5]; 0.821 in experiment [6].

Regarding CGGCAA, the binding signal in experiment [1] came to 0.933; in experiment [2] it was 0.922; in experiment [3] it was 0.801; in experiment [4] it was 0.952; in experiment [5] it was 0.92; in experiment [6], 0.967.

For GTCTAG, the binding signal in experiment [1] amounted to 0.817; in experiment [2], 0.807; in experiment [3] it was 0.859; in experiment [4], 0.806; in experiment [5] it was 0.85; in experiment [6], 0.818.

For CAGAAG, the binding signal in experiment [1] worked out at 0.741; in experiment [2] it was 0.737; in experiment [3] it was 0.863; in experiment [4], 0.78; in experiment [5] it was 0.727; in experiment [6], 0.762.

As for CGAGAT, the binding signal in experiment [1] is 0.855; in experiment [2] it was 0.915; in experiment [3] it was 0.862; in experiment [4], 0.891; in experiment [5], 0.942; in experiment [6], 0.91.

With GCATTA, the binding signal in experiment [1] stood at 0.809; in experiment [2], 0.856; in experiment [3], 0.901; in experiment [4] it was 0.82; in experiment [5], 0.853; in experiment [6], 0.832.

Regarding GACATG, the binding signal is 0.93 in experiment [1]; 0.966 in experiment [2]; 0.914 in experiment [3]; 0.879 in experiment [4]; 0.909 in experiment [5]; 0.881 in experiment [6].
